Source: publication PMC6987099
No constants are given. Whether binding was seen depends on the method and setting. In cells and extracts the contact can be indirect. Some entries that bind do so weakly or less than the wild type.

The chains behind the UniProt entries cited, without tags or fusion partners.
UniProt P56279: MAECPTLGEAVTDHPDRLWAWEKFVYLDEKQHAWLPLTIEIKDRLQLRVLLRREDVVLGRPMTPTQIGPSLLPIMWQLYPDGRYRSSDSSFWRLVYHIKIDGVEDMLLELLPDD

Tests used:
TCL1A-Myc [1] = molecular target: TCL1A-Myc (UniProt P56279); experiment: condition: only cells treated with AUY-922 (HSP90 inhibitor); co-IP; TCL1A-Myc-transfected HEK293 cells treated with DMSO or AUY-922 as indicated; lysates immunoprecipitated with anti-Myc antibody; blot with anti-Myc and anti-HSP90A
TCL1A-Myc [2] = molecular target: TCL1A-Myc (UniProt P56279); experiment: co-IP; HEK293 cells transfected with pME18-myc/TCL1 for 24 h; NP40 lysis buffer (50 mM Tris-HCl pH 8.0, 5 mM EDTA, 150 mM NaCl, 1% NP-40, 1 mM PMSF); immunoprecipitation with 1 ug anti-Myc antibody or mouse IgG for 16 h; blot with anti-HSP90A

binding (TCL1A-Myc [1]): no binding
binding (TCL1A-Myc [2]): binds
Substance: HSP90A (from UniProt P07900 1-732)
